Laboratory results reported in paper PMC12199426.
These are yes or no findings as the source states them, for the method shown. In cells and extracts the contact can be indirect. A yes stands for co-enrichment or nearness to the bait. Other partners may have been found.

By UniProt entry, the sequences of proteins in these tests, tags left out.
UniProt O35286: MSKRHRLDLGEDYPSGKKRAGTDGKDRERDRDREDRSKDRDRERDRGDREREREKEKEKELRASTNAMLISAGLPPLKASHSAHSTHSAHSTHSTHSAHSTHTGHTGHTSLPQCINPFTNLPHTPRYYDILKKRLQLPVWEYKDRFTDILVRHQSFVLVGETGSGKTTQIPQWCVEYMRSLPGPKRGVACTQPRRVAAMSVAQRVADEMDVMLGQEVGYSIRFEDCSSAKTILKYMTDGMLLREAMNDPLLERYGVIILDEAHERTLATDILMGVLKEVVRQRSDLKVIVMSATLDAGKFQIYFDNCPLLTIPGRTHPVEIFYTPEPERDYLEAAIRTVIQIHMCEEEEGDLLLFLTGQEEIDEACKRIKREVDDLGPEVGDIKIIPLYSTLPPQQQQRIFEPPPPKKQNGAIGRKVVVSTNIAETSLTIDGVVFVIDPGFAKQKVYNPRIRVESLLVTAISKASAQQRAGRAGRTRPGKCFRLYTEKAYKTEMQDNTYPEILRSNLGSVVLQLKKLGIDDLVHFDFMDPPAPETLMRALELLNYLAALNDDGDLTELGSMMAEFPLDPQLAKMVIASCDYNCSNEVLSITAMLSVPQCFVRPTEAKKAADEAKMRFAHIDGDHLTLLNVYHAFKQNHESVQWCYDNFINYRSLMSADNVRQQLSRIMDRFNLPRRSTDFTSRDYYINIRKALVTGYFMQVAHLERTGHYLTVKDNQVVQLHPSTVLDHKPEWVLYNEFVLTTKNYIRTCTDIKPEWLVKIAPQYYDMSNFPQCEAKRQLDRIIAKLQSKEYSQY

T1: Breast cancer amplified sequence 2 (Bcas2) (mouse (endogenous in splenic B cells)) (UniProt Q9D287)
T1 sequence: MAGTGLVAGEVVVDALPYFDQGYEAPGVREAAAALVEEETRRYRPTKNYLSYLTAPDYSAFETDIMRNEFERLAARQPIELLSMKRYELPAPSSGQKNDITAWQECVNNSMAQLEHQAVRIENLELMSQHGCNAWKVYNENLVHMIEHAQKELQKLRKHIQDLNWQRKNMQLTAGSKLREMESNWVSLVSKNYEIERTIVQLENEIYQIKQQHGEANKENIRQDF

B1: SRSF7 (protein, UniProt Q8BL97 1-267)
chain: MRSSARGRPLQAATAFFLSLFFFLRRFERGFWLWGGDSETKVYVGNLGTGAGKGELERAFSYYGPLRTVWIARNPPGFAFVEFEDPRDAEDAVRGLDGKVICGSRVRVELSTGMPRRSRFDRPPARRPFDPNDRCYECGEKGHYAYDCHRYSRRRRSRSRSRSHSRSRGRRYSRSRSRSRGRRSRSASPRRSRSVSLRRSRSASLRRSRSGSIIGSRYFQSRSRSRSRSRSISRPRSSRSKSRSPSPKRSRSPSGSPHRSASPERMD

Target: T1, Breast cancer amplified sequence 2 (Bcas2) (mouse (endogenous in splenic B cells))
Assay: affinity purification with mass spectrometry; Bcas2 immunoprecipitates from mouse splenic B cells (IP-MS, Q-Exactive; Mascot search of the UniProt mouse database)

Row | binding | Molecule
1 | binds | DHX15 (from UniProt O35286 1-795)
2 | binds | B1
